This is a selection; strong and weak results do not stand in their true shares. Most values lie at the level of the controls, where differences are scatter.
compound: Nc1ncnc2c1ncn2[C@@H]1O[C@H](COP(=O)(O)OP(=O)(O)OP(=O)(O)O)[C@@H](O)[C@H]1O [adenosine 5'-triphosphate]; test: log2 fold change of tryptic peptide abundance, ligand vs vehicle (limited proteolysis) (log2 ratio); higher = more trypsin-susceptible (destabilized); conditions: ligand concentration: 5 mM; sample: E. coli desalted lysate; replicate design: treated before aliquoting
Procedure: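 HT-PELSA: desalted E. coli K-12 BW25113 lysate (with 12 mM MgCl2) incubated with 5 mM ATP (pH 7) or water for 30 min at 25 C, then a 4 min trypsin pulse at 22 C. Peptides were quantified by DIA-MS (4 replicates). Value is the peptide log2 fold change (treated/control); negative = stabilized. Scale: negative = ligand-stabilized region.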
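Further: lysate desalted by size exclusion to strip endogenous ATP, peptide intensities built from DIA-NN precursor signals, and peptides missing any value discarded before comparison.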

Chains of the proteins cited; added tags and fusions are not shown. Lines headed by an entry give the natural chain unless they say otherwise; changes in a name come on top.
UniProt P33224: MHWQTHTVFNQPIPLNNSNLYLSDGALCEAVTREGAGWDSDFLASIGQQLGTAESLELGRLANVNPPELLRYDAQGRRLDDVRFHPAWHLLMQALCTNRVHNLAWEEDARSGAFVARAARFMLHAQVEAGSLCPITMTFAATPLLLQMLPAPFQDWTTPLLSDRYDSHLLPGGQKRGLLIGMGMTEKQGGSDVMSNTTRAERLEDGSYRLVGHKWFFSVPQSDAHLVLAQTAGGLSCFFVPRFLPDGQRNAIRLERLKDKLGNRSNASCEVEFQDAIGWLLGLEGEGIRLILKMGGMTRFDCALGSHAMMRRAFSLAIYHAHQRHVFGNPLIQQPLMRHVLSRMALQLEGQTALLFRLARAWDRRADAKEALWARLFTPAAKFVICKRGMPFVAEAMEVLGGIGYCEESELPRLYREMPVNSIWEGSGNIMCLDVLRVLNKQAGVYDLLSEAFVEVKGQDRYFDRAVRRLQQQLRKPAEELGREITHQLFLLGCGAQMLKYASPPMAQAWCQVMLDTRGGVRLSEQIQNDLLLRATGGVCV
UniProt P39279: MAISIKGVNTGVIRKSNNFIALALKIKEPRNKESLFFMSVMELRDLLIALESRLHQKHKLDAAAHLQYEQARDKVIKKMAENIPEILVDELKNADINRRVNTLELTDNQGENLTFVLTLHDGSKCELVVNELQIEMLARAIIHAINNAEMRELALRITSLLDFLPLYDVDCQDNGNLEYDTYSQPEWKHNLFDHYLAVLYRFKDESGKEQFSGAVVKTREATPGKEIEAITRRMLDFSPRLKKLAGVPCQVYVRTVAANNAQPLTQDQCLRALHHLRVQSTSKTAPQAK
UniProt P32669: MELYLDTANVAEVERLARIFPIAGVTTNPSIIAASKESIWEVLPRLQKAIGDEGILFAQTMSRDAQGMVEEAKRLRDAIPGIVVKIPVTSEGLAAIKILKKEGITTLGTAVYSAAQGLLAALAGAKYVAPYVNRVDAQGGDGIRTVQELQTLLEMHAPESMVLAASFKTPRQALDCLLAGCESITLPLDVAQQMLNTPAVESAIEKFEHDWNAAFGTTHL
UniProt P38055: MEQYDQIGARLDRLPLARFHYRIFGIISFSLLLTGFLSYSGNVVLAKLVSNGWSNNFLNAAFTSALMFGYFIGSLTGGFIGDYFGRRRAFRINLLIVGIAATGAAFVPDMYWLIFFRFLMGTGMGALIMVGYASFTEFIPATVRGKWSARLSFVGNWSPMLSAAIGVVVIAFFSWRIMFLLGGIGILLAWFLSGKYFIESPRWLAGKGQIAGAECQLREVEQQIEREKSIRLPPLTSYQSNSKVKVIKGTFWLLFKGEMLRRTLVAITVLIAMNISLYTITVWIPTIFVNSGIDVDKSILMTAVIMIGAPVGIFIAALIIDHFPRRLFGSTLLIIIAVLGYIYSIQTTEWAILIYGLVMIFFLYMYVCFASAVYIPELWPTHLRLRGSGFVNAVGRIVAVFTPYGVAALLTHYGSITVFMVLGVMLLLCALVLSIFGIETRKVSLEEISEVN
UniProt P38036: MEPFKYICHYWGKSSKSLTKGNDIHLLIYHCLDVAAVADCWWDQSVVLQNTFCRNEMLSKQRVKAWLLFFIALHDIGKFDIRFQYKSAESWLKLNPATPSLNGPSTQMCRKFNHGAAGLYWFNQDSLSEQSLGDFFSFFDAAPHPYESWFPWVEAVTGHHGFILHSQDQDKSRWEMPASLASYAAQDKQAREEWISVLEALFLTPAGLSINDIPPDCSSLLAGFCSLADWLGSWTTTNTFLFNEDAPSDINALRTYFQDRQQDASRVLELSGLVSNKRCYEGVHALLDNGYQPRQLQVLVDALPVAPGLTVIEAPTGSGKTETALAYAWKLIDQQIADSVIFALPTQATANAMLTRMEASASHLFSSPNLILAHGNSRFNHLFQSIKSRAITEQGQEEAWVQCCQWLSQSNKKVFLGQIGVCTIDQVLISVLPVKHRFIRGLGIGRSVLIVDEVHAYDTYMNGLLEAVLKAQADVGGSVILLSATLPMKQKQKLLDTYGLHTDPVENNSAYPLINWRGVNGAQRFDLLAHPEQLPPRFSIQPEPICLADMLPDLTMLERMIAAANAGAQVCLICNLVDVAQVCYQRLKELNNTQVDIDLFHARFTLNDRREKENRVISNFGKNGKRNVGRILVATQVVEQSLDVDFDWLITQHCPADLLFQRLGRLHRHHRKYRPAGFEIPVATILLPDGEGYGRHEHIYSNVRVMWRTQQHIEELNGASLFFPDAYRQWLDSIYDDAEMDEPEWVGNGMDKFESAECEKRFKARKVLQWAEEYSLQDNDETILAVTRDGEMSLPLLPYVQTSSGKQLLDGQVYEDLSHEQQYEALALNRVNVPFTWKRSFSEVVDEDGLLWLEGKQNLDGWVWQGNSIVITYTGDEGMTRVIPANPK
UniProt P31443: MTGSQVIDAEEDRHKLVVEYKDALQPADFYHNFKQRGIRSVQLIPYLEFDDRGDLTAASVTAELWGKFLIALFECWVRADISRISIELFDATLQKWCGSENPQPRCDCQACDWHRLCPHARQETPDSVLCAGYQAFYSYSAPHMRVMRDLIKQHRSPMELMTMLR
UniProt P37664: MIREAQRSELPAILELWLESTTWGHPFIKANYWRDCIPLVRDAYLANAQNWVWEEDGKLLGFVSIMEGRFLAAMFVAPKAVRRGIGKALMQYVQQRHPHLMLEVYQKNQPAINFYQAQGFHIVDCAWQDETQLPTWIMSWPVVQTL
UniProt P39173: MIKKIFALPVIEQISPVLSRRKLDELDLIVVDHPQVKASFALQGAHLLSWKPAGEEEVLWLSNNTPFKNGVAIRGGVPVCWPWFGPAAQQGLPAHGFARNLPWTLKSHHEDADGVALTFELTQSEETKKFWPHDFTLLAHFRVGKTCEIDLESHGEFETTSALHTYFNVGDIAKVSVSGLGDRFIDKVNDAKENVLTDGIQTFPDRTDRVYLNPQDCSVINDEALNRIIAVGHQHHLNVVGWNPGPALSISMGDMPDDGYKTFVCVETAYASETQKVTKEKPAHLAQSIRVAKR
UniProt P39176: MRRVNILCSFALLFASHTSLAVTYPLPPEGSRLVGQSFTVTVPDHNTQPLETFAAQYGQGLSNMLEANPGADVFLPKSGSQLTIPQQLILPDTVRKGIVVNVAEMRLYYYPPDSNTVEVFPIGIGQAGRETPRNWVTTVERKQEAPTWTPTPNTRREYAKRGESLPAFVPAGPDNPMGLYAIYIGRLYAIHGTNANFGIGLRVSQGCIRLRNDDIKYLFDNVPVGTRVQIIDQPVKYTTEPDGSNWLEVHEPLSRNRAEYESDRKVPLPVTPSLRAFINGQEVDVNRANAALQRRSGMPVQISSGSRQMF
UniProt P32162: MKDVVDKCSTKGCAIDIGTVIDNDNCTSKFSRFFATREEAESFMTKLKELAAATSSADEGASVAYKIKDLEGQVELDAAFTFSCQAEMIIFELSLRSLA
UniProt P37095: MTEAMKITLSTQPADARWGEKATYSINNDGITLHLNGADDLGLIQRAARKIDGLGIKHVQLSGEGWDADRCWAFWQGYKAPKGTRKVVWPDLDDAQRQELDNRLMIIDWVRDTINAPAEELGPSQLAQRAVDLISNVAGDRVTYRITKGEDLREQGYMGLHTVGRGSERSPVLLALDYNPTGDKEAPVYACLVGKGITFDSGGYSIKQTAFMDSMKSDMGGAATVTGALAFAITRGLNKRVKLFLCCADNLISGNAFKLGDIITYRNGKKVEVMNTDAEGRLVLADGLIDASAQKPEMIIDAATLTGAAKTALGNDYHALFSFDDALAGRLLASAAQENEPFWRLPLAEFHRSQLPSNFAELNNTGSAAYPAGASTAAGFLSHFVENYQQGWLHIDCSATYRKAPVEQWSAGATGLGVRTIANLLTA
UniProt P33355: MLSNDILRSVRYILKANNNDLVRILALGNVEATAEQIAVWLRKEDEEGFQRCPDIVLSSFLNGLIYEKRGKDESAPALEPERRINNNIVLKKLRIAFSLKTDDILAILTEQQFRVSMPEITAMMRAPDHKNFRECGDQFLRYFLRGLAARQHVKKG
UniProt P32160: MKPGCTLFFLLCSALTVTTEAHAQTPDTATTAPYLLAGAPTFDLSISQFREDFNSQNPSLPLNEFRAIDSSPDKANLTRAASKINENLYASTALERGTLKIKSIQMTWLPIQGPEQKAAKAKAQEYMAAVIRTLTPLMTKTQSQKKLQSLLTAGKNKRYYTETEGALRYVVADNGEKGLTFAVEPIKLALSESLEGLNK
UniProt P37679: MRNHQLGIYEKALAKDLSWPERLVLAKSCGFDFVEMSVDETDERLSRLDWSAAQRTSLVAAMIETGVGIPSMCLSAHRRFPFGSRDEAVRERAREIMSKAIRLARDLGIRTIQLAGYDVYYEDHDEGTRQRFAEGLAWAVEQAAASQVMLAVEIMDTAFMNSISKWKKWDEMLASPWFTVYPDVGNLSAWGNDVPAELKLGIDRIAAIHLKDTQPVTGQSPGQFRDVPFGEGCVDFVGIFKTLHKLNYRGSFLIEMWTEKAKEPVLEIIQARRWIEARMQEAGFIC
UniProt P38521: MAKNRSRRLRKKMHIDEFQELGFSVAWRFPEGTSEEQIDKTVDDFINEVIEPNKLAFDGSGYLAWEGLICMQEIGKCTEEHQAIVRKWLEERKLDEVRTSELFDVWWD
UniProt P33014: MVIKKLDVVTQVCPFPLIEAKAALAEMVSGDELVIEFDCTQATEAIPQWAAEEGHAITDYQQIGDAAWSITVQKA
UniProt P31474: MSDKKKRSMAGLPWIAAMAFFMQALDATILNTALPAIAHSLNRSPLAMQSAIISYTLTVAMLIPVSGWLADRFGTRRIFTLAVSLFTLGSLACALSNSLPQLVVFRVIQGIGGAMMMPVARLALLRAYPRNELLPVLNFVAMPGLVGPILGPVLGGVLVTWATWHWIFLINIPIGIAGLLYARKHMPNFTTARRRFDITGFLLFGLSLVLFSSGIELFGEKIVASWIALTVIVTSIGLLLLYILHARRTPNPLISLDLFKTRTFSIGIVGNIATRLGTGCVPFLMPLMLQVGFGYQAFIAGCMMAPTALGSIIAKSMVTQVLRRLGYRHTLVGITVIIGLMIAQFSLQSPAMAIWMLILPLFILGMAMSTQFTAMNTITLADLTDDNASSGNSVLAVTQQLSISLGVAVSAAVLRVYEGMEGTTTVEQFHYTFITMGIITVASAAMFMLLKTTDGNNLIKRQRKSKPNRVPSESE
UniProt P37750: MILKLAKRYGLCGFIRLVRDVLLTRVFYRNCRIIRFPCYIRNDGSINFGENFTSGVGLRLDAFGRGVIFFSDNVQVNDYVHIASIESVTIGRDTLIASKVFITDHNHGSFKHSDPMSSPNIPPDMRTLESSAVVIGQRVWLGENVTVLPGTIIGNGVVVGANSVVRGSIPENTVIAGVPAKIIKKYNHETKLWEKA
UniProt P38489: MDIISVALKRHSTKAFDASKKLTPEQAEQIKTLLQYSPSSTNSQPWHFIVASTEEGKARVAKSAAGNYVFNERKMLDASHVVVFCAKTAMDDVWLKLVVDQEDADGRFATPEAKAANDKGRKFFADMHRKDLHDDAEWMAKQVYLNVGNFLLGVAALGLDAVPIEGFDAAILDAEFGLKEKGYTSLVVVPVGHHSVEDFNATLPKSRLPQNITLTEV
UniProt P37329: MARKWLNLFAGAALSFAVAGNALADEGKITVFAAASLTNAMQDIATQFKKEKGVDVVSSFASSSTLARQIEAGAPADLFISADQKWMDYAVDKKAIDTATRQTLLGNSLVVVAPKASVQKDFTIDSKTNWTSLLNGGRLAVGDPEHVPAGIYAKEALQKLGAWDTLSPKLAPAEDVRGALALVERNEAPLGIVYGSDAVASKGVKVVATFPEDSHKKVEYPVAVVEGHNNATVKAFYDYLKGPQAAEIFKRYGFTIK
UniProt P33352: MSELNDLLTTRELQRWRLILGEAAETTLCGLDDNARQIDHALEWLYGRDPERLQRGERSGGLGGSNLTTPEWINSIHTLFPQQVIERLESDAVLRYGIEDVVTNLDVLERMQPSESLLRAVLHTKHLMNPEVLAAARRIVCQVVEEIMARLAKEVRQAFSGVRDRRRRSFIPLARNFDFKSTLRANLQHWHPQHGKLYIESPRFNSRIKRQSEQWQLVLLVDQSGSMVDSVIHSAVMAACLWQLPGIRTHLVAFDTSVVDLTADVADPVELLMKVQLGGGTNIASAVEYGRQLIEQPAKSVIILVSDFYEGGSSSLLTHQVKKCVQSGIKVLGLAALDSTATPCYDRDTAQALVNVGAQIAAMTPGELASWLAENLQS
UniProt P37387: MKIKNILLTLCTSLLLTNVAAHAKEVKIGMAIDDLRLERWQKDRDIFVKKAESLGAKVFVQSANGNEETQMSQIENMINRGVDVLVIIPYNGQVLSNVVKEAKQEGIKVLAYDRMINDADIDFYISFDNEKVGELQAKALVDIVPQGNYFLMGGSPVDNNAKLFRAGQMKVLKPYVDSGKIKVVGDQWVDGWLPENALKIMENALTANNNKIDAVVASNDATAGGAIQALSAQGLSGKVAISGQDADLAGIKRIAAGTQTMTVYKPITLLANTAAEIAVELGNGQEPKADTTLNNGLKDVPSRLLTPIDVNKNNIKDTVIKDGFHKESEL

Row | Target | log2 fold change
1 | UniProt P33224 (peptide sequence: VHNLAWEEDAR, peptide start residue: 100) | 0.393
2 | UniProt P39279 (peptide sequence: FKDESGKEQFSGAVVK, peptide start residue: 202) | 0.293
3 | UniProt P32669 (peptide sequence: DAQGMVEEAKR, peptide start residue: 64) | 0.561
4 | UniProt P31678 (peptide sequence: GMAFALHYR, peptide start residue: 126) | 0.474
5 | UniProt P38104 (peptide sequence: GLAYEPATK, peptide start residue: 166) | -0.00266
6 | UniProt P38055 (peptide sequence: GQIAGAECQLR, peptide start residue: 208) | 0.0158
7 | UniProt P37676 (peptide sequence: AFSDALGNQVR, peptide start residue: 297) | 0.712
8 | UniProt P38036 (peptide sequence: FNHLFQSIK, peptide start residue: 379) | 0.55
9 | UniProt P31443 (peptide sequence: SPMELMTMLR, peptide start residue: 156) | -0.412
10 | UniProt P31471 (peptide sequence: NFTVVVGDKDVVTGK, peptide start residue: 331) | -0.459
11 | UniProt P37664 (peptide sequence: HPHLMLEVYQK, peptide start residue: 97) | 0.34
12 | UniProt P39321 (peptide sequence: MTDYTLSMR, peptide start residue: 384) | -0.614
13 | UniProt P39173 (peptide sequence: RKLDELDLIVVDHPQVK, peptide start residue: 21) | 0.572
14 | UniProt P31826 (peptide sequence: TNLVQHNK, peptide start residue: 232) | -0.482
15 | UniProt P39176 (peptide sequence: VQIIDQPVK, peptide start residue: 228) | -0.21
16 | UniProt P37049 (peptide sequence: NHLIGETLK, peptide start residue: 130) | -0.32
17 | UniProt P37195 (peptide sequence: HNIMMILNLKR, peptide start residue: 152) | -0.303
18 | UniProt P32675 (peptide sequence: IMDATQAR, peptide start residue: 178) | -0.362
19 | UniProt P33595 (peptide sequence: TLLNTMQDR, peptide start residue: 42) | 0.396
20 | UniProt P32162 (peptide sequence: DVVDKCSTK, peptide start residue: 3) | -0.384

Nos. 11–12 of the list above:
Row | Target | log2 fold change
11 | UniProt P37664 (peptide sequence: HPHLMLEVYQK, peptide start residue: 97) | 0.34
12 | UniProt P39321 (peptide sequence: MTDYTLSMR, peptide start residue: 384) | -0.614

The listing continues:

Row | Target | log2 fold change
21 | UniProt P37095 (peptide sequence: KAPVEQWSAGATGLGVR, peptide start residue: 403) | -0.457
22 | UniProt P33355 (peptide sequence: INNNIVLK, peptide start residue: 84) | 0.513
23 | UniProt P32160 (peptide sequence: YVVADNGEK, peptide start residue: 169) | 0.194
24 | UniProt P37610 (peptide sequence: VTQHYANADYLPQRR, peptide start residue: 252) | -0.495
25 | UniProt P37679 (peptide sequence: DLSWPER, peptide start residue: 16) | -0.205
26 | UniProt P31224 (peptide sequence: KNEDIEHSHTVDHH, peptide start residue: 1036) | -0.57
27 | UniProt P38521 (peptide sequence: CTEEHQAIVR, peptide start residue: 77) | -0.232
28 | UniProt P39265 (peptide sequence: SGKVIPLDKAPEFK, peptide start residue: 289) | 0.214
29 | UniProt P33234 (peptide sequence: KLKSENTSYSQIITTCR, peptide start residue: 182) | 1.31
30 | UniProt P33014 (peptide sequence: KLDVVTQVCPFPLIEAK, peptide start residue: 5) | -0.0291
31 | UniProt P31474 (peptide sequence: SKPNRVPSESE, peptide start residue: 465) | 0.288
32 | UniProt P37338 (peptide sequence: EALSQLVAER, peptide start residue: 45) | 0.437
33 | UniProt P31666 (peptide sequence: GFIDKGHLEPVQGR, peptide start residue: 73) | 0.335
34 | UniProt P37750 (peptide sequence: VFITDHNHGSFK, peptide start residue: 100) | -0.178
35 | UniProt P38489 (peptide sequence: LVVDQEDADGRFATPEAK, peptide start residue: 97) | 0.252
36 | UniProt P37351 (peptide sequence: HEIVAHLVER, peptide start residue: 17) | 0.646
37 | UniProt P37329 (peptide sequence: LAPAEDVR, peptide start residue: 170) | 0.249
38 | UniProt P33591 (peptide sequence: LRGLNDKQTER, peptide start residue: 213) | 0.345
39 | UniProt P33352 (peptide sequence: LYIESPR, peptide start residue: 197) | -0.0731
40 | UniProt P37387 (peptide sequence: VLKPYVDSGKIK, peptide start residue: 171) | -1.15

— the supplement of paper PMC12819154, “High-throughput peptide-centric local stability assay extends protein–ligand identification to membrane proteins, tissues and bacteria” (Nature Structural & Molecular Biology, 2025)
